Source: PubChem BioAssay AID602196 (INSERM, 2012)
Aim: 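Modifiers of cisplatin sensitivity in A549 cells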. Cells: human A549 lung cancer cells. Reagent: siRNA pair against human genes. Duration: 48 h transfection before cisplatin; time from cisplatin to read-out not stated. Challenge: cisplatin at a dose killing half of control-siRNA cells; exact dose and duration not given. Detection: 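Cisplatin cell death as a shift from the 50% death seen with control siRNA; siRNAs toxic or growth-blocking alone scored 0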. Scale: two-siRNA summed score (-2 to +2): higher = both siRNAs protect from cisplatin killing; -2 means both sensitise; mean protection from cisplatin (shift in death): higher = protection from cisplatin killing. Active means: 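siRNAs harmful alone (LDH or WST-1) get 0; others get +1 for less and -1 for more cisplatin killing; genes are active when the two siRNAs give the same sign, summing to ±2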. Meaning of the calls: active = both siRNAs shift cisplatin killing the same way; inactive = no consistent shift, or siRNA harmful alone.
The whole screen tested about 23,000 reagents; shown is an unselected part. 455 of all reagents (2%) count as active. 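Active includes both protection and sensitisation; some change values fall well beyond the stated -50 to +50 range.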 Further read-outs or replicates are left out here. Not given: the amount of reagent.

HNRNPH1 → two-siRNA summed score (-2 to +2): 1; mean protection from cisplatin (shift in death) (%): 14.4; Outcome: inactive
CYB5A → two-siRNA summed score (-2 to +2): 0; mean protection from cisplatin (shift in death) (%): 1.2; Outcome: inactive
PDE1A → two-siRNA summed score (-2 to +2): 0; mean protection from cisplatin (shift in death) (%): 5.3; Outcome: inactive
ZNF892 → two-siRNA summed score (-2 to +2): 0; mean protection from cisplatin (shift in death) (%): -1.6; Outcome: inactive
LOC339979 → two-siRNA summed score (-2 to +2): 1; mean protection from cisplatin (shift in death) (%): 7; Outcome: inactive
KCNJ12 → two-siRNA summed score (-2 to +2): 0; mean protection from cisplatin (shift in death) (%): 1.9; Outcome: inactive
PDE11A → two-siRNA summed score (-2 to +2): 0; mean protection from cisplatin (shift in death) (%): -5.2; Outcome: inactive
CHST9 → two-siRNA summed score (-2 to +2): 1; mean protection from cisplatin (shift in death) (%): 7.8; Outcome: inactive
SERPINB13 → two-siRNA summed score (-2 to +2): 0; mean protection from cisplatin (shift in death) (%): 22.7; Outcome: inactive
DKK2 → two-siRNA summed score (-2 to +2): -1; mean protection from cisplatin (shift in death) (%): -15.5; Outcome: inactive
CREB5 → two-siRNA summed score (-2 to +2): 1; mean protection from cisplatin (shift in death) (%): 12.9; Outcome: inactive
NUP58 → two-siRNA summed score (-2 to +2): 0; mean protection from cisplatin (shift in death) (%): 3.4; Outcome: inactive
ABCD4 → two-siRNA summed score (-2 to +2): 0; mean protection from cisplatin (shift in death) (%): -6.9; Outcome: inactive
FLJ23529 → two-siRNA summed score (-2 to +2): 0; mean protection from cisplatin (shift in death) (%): 8.6; Outcome: inactive

Entries above whose gene name begins with P or p:
PDE1A → two-siRNA summed score (-2 to +2): 0; mean protection from cisplatin (shift in death) (%): 5.3; Outcome: inactive
PDE11A → two-siRNA summed score (-2 to +2): 0; mean protection from cisplatin (shift in death) (%): -5.2; Outcome: inactive

The listing continues.
RAC2 → two-siRNA summed score (-2 to +2): -1; mean protection from cisplatin (shift in death) (%): -24.6; Outcome: inactive
SLC18A3 → two-siRNA summed score (-2 to +2): 0; mean protection from cisplatin (shift in death) (%): 1.7; Outcome: inactive
LOC389385 → two-siRNA summed score (-2 to +2): 0; mean protection from cisplatin (shift in death) (%): 3.1; Outcome: inactive
LOC440666 → two-siRNA summed score (-2 to +2): 1; mean protection from cisplatin (shift in death) (%): 16.3; Outcome: inactive
LOC442613 → two-siRNA summed score (-2 to +2): 0; mean protection from cisplatin (shift in death) (%): 16.2; Outcome: inactive
LOC340893 → two-siRNA summed score (-2 to +2): 1; mean protection from cisplatin (shift in death) (%): 16.2; Outcome: inactive
LCMT2 → two-siRNA summed score (-2 to +2): 0; mean protection from cisplatin (shift in death) (%): -9.8; Outcome: inactive
C9 → two-siRNA summed score (-2 to +2): 0; mean protection from cisplatin (shift in death) (%): 5.2; Outcome: inactive
ZNF253 → two-siRNA summed score (-2 to +2): 0; mean protection from cisplatin (shift in death) (%): 3.8; Outcome: inactive
SLC35G5 → two-siRNA summed score (-2 to +2): 0; mean protection from cisplatin (shift in death) (%): 7.6; Outcome: inactive
OR6C1 → two-siRNA summed score (-2 to +2): 0; mean protection from cisplatin (shift in death) (%): 13.1; Outcome: inactive
SLC25A11 → two-siRNA summed score (-2 to +2): -1; mean protection from cisplatin (shift in death) (%): -9.2; Outcome: inactive
NUP153 → two-siRNA summed score (-2 to +2): -1; mean protection from cisplatin (shift in death) (%): -18.3; Outcome: inactive
TNS4 → two-siRNA summed score (-2 to +2): 0; mean protection from cisplatin (shift in death) (%): -4.9; Outcome: inactive
POM121 → two-siRNA summed score (-2 to +2): 0; mean protection from cisplatin (shift in death) (%): -0.9; Outcome: inactive
LOC441061 → two-siRNA summed score (-2 to +2): -1; mean protection from cisplatin (shift in death) (%): -0.1; Outcome: inactive
LOC387755 → two-siRNA summed score (-2 to +2): 0; mean protection from cisplatin (shift in death) (%): 3.9; Outcome: inactive
